Data as given in PubChem BioAssay AID1259308 (NCATS, 2017)

Aim: 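Knock-downs that increase output of a recombinant reporter protein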 (primary screen)
System: human HEK293 embryonic kidney cells stably expressing firefly luciferase (HEK-CMV-Luc2-Hygro)
Reagent: single siRNA against human genes, 0.8 pmol siRNA per well
Timing: 72 h
Measurement: 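Luciferase light (ONE-Glo) measured on one replicate plate set and viability (CellTiter-Glo) on the other, scaled to a negative control siRNA, with robust z-scores and luciferase per cell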
Direction: total luciferase, z-score: higher = more reporter protein produced
Hit rule: 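Active when the median/MAD z-score for overall luciferase is greater than 3; a gene was taken forward for validation with new siRNAs if at least two of its three siRNAs passed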
Meaning of the calls: active = raised luciferase; inactive = no rise
This is an unselected part of about 59,000 deposited reagents. About 1,510 of all reagents (2.6%) count as active. 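Calls use total luciferase alone and ignore viability, so some active siRNAs may act by altering cell number.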 Unmarked entries are inactive. The numbers tell different reagents against one gene apart. Not all columns of the deposit are shown.

Target gene	reagent	total luciferase, z-score
RPL12P2	1	-0.869
RPL12P2	2	0.364
RPL12P2	3	-0.521
SEPTIN3	1	-0.661
SEPTIN3	2	-0.225
SEPTIN3	3	4.54 (active)
TWIST2	1	-1.45
TWIST2	2	-1.43
TWIST2	3	0.096
CRYAB	1	-0.691
CRYAB	2	2.27
CRYAB	3	1.3
SCAMP2	1	0.748
SCAMP2	2	0.334
SCAMP2	3	1.31
RNF19B	1	0.167
RNF19B	2	-0.458
RNF19B	3	1.34
CIST1	1	-0.815
CIST1	2	2.95
CIST1	3	-1.45
SLC5A6	1	0.0986
SLC5A6	2	-0.976
SLC5A6	3	-1.33

Sorted by “total luciferase, z-score” (highest first): some entries from above
Target gene	reagent	total luciferase, z-score
TWIST2	3	0.096
CRYAB	1	-0.691
TWIST2	2	-1.43
